# PubChem BioAssay AID652243 – Drosophila RNAi Screening Center – 2013
# Aim: 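Fly regulators of androgen-dependent reporter output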 (primary screen)
# Cells: Drosophila S2R+ cells
# Knock-down reagent: long dsRNA against Drosophila genes
# Duration: 72 h (48 h, then 24 h hormone)
# Conditions: synthetic androgen R1881 at 10 nM for 24 h
# Read-out: 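Firefly light from an androgen-responsive reporter and Renilla control light per well, raw and unnormalised, for each of two replicates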
# Direction: firefly reporter light: higher = more light from androgen-responsive reporter; Renilla control light: higher = more constitutive control signal (cell number, transfection)
# Active means: 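Across duplicate plates, a knock-down whose log firefly/Renilla ratio shifted a set fold down or up from the GFP/LacZ control mean was a hit; the downward cut appears as both 1.5 and 3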
# Meaning of the calls: active = hit: reporter lowered or raised; inactive = no hit
# The screen tested about 24,000 reagents; shown is a random part of those that have a named target and a result. Of all reagents, 246 (1%) got an active call. 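Plates not normalised; calls are printed but the firefly/Renilla ratio behind them is not deposited; fold cut for lowering reported inconsistently.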 The raw values are shown without normalisation. Names joined by + are all predicted targets of the reagent. Not stated in the record: the amount of reagent.
Gene,DRSC id,"firefly reporter light, replicate 1","firefly reporter light, replicate 2","Renilla control light, replicate 1","Renilla control light, replicate 2",outcome
CG15824,DRSC00473,2.31e5,98003,1.47e6,9.90e5,inactive
CG15824,DRSC27412,2.61e5,2.61e5,7.49e5,7.85e5,inactive
orb2 + CG43783,DRSC10540,6.28e5,5.40e5,1.15e6,1.21e6,inactive
orb2 + CG43783,DRSC10541,1.70e5,1.81e5,2.10e6,1.59e6,inactive
orb2 + CG43783,DRSC10542,6.03e5,7.94e5,9.82e5,2.08e6,inactive
orb2 + CG43783,DRSC25697,7.54e5,8.33e5,7.43e5,8.34e5,inactive
CG7611,DRSC11840,7.82e5,8.09e5,1.59e6,1.91e6,inactive
Rpi (Ribose-5-phosphate isomerase),DRSC04583,2.55e5,2.48e5,2.07e6,1.81e6,inactive
Asph (Aspartyl beta-hydroxylase),DRSC06783,93553,1.74e5,1.86e6,1.86e6,inactive
Asph (Aspartyl beta-hydroxylase),DRSC07171,1.08e6,8.62e5,1.95e6,1.58e6,inactive
Asph (Aspartyl beta-hydroxylase),DRSC29507,2.79e5,4.40e5,6.93e5,6.93e5,inactive
mat (materazzi),DRSC08376,1.83e5,2.05e5,3.05e6,2.63e6,inactive
mat (materazzi),DRSC22841,5.22e5,1.07e6,9.50e5,1.45e6,inactive
mat (materazzi),DRSC27210,2.52e5,2.16e5,6.44e5,4.33e5,inactive
RhoGEF64C (Rho guanine nucleotide exchange factor at 64C),DRSC08318,6.42e5,5.62e5,1.36e6,1.70e6,inactive
RhoGEF64C (Rho guanine nucleotide exchange factor at 64C),DRSC08319,1.23e5,87197,1.18e6,1.14e6,inactive
RhoGEF64C (Rho guanine nucleotide exchange factor at 64C),DRSC25939,3.47e5,3.64e5,8.12e5,9.94e5,inactive
Cpr47Ed (Cuticular protein 47Ed),DRSC07331,3.46e5,2.50e5,1.95e6,1.45e6,inactive
CG31272,DRSC16058,67151,1.02e5,1.60e6,1.66e6,inactive
CG13676,DRSC10035,2.79e5,1.81e5,2.22e6,1.68e6,inactive
CG9143,DRSC07338,7.12e5,8.80e5,9.62e5,9.38e5,inactive

Next part; the last 5 above are carried over.
Gene,DRSC id,"firefly reporter light, replicate 1","firefly reporter light, replicate 2","Renilla control light, replicate 1","Renilla control light, replicate 2",outcome
RhoGEF64C (Rho guanine nucleotide exchange factor at 64C),DRSC25939,3.47e5,3.64e5,8.12e5,9.94e5,inactive
Cpr47Ed (Cuticular protein 47Ed),DRSC07331,3.46e5,2.50e5,1.95e6,1.45e6,inactive
CG31272,DRSC16058,67151,1.02e5,1.60e6,1.66e6,inactive
CG13676,DRSC10035,2.79e5,1.81e5,2.22e6,1.68e6,inactive
CG9143,DRSC07338,7.12e5,8.80e5,9.62e5,9.38e5,inactive
Lrr47 (Leucine-rich repeat 47),DRSC03365,8.91e5,1.58e6,9.68e5,1.74e6,inactive
Atg1 (Autophagy-related 1),DRSC09809,1.14e6,8.77e5,1.63e6,1.71e6,inactive
Atg1 (Autophagy-related 1),DRSC09810,2.90e5,2.91e5,2.17e6,1.64e6,inactive
Atg1 (Autophagy-related 1),DRSC37017,,,,,inactive
Sec61alpha (Sec61 alpha subunit),DRSC03256,1.38e6,1.66e6,2.16e6,2.60e6,inactive
CG10068,DRSC12508,41357,36565,1.87e5,1.86e5,inactive
MFS16 (Major Facilitator Superfamily Transporter 16),DRSC04051,2.88e5,3.71e5,1.88e6,2.27e6,inactive
MFS16 (Major Facilitator Superfamily Transporter 16),DRSC26536,3.00e5,3.39e5,5.65e5,7.78e5,inactive
CG13024,DRSC09904,2.74e5,2.63e5,2.21e6,1.91e6,inactive
CG13024,DRSC29921,3.98e5,4.46e5,1.07e6,1.35e6,inactive
CG1698,DRSC06640,1.16e6,8.18e5,1.95e6,1.63e6,inactive
CG1698,DRSC24314,7.34e5,7.72e5,7.57e5,9.51e5,inactive
RASSF8 (Ras association domain family member 8),DRSC15707,1.86e5,90061,9.47e5,6.49e5,inactive
RASSF8 (Ras association domain family member 8),DRSC26449,3.06e5,2.84e5,4.64e5,6.60e5,inactive
Argp (Arginine phosphatase),DRSC16510,2.11e5,1.12e5,2.34e6,2.55e6,inactive
Argp (Arginine phosphatase),DRSC36981,,,,,inactive
CG12942,DRSC06253,1.01e6,1.06e6,1.01e6,1.43e6,inactive
CG12942,DRSC25987,6.47e5,5.42e5,1.05e6,7.42e5,inactive
CG17242,DRSC00493,1.26e5,92332,8.24e5,5.99e5,inactive
